Laboratory results as given in US7705016B2, “Regulation of food intake by modulation of long-chain fatty acyl-CoA levels in the hypothalamus” (Albert Einstein College of Medicine of Yeshiva University, priority 2003, dated 2010).

System: male Sprague-Dawley (S-D) rats
Test: ICV OA infusion with pancreatic-insulin clamp (insulin action studies)
Type: in vivo, rat
Conditions: Basal
Description: Insulin action studies. The experimental protocol herein was designed to examine the effect of nutritional status on the ability of long-chain fatty acids in the hypothalamus to modulate carbohydrate metabolism. Rats (n=43) were implanted with chronic catheters as previously described (Liu et al., 1998). After full recovery from the catheterization, animals were randomized into three groups HF55 (n=16), HF80 (n=9), or HF140 (n=18) and were allowed to consume their allocated diet for three days. On the night prior to the in vivo study all rats received 55 kcal to ensure a similar nutritional state at the start of the metabolic studies. All studies were performed in awake, unstressed, chronically catheterized rats. At t=−120 (FIG. 7a), a primed-continuous infusion of ICV OA (total dose 30- or 300-nmol) or Vehicle (HBP 10% in aCSF) was initiated and maintained throughout the duration of the study. Plasma glucose was measured periodically initiating at the onset (t=−120) of the ICV infusion and lasting throughout the duration of the study. Plasma samples for determination of insulin, leptin, and non-esterified fatty acid concentration were obtained at the onset (t=−120) and at 30 min intervals during the study. At t=0, and a primed-continuous infusion of HPLC-purified [3-3H]-glucose (New England Nuclear, Boston, Mass.; 40 μCi bolus, 0.4 μCi/min for duration of the study) was initiated and maintained for the last four hours of the study. Samples for determination of ^3H-glucose specific activity were obtained at 10-minute intervals throughout infusions. Finally, at t=120, a pancreatic-insulin clamp study was initiated and maintained for two hours. During this procedure, a primed-continuous infusion of regular insulin (1 mU/kg/min) was administered, and a variable infusion of 25% glucose solution was started at t=120 and periodically adjusted to clamp the plasma glucose concentration at ˜7 mM. […]
Analytical Procedures and Calculations. Plasma glucose was measured by the glucose oxidase method (Glucose Analyzer II, Beckman Instruments, Inc. Fullerton, Calif., USA). Plasma insulin and leptin levels were determined by RIA (rat Leptin RIA kit, Linco Research Inc., St. Charles, Mo.). Serum adiponectin was measured by RIA (Linco Research, Inc., St. Charles, Mo.). Plasma non-esterified fatty acid concentrations were determined an enzymatic method by an automated kit according to the manufacturer's specifications (Waco Pure Chemical Industries. Osaka, Japan). The radioactivity of [3-^3H]glucose in plasma was measured from supernatants of Ba (OH)2 and from ZnSO4 precipitates (Somogyi procedure), after each was evaporated to dryness for the removal of tritiated water. […]

CCCCCCCC/C=C\CCCCCCCC(=O)O [OA, oleic acid]
Adiponectin (HF55, ICV OA): 3.6 ± 0.5 µg/mL | Adiponectin (HF80, ICV OA): 2.9 ± 0.4 µg/mL | Adiponectin (HF140, ICV OA (30 nmol)): 3.8 ± 0.3 µg/mL | Adiponectin (HF140, ICV OA (300 nmol)): 4.0 ± 0.5 µg/mL
